## Library screening results

Amino acid sequences for entries named in this document (tags omitted).
UniProt E9BF75, entry or part of it: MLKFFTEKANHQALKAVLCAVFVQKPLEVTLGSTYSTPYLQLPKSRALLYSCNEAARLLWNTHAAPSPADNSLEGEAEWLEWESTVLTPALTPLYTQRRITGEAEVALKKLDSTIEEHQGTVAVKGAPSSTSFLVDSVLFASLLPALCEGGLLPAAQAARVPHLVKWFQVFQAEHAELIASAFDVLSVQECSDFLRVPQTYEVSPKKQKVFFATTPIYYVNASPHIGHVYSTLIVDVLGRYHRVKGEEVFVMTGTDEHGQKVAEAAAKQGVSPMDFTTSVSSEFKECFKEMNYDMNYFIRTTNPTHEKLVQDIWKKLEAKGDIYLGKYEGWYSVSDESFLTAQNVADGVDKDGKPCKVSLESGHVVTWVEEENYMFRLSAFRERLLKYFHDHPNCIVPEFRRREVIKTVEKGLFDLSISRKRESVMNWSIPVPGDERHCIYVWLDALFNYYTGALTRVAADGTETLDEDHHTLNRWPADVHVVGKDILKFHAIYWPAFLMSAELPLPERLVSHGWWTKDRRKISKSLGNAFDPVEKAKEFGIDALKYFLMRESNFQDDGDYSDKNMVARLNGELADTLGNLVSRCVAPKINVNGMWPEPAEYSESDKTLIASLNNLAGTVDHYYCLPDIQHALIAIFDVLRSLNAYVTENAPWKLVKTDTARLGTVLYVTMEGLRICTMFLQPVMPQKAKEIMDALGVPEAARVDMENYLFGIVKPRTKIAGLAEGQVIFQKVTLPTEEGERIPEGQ

From ChEMBL document CHEMBL3988442, “University of Dundee, Small-Polar-MMV Screening Library” (2021).

A: 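Primary screen of methionyl-tRNA synthetase; the read-out is not stated. Target: Methionyl-tRNA synthetase (putative), Leishmania donovani (UniProt E9BF75). The test concentration is not given. The values are filed as inhibition. About 68,000 compounds were tested under these conditions; 0.035% (about 24) showed 50% or more at least once.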
B: 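Assay on Mycobacterium tuberculosis, filed only as a heat shock assay from Cornell; the read-out is not stated. The concentration is filed as 10 mM, unlikely as a test dose, so the dose is not known. Higher reads as stronger inhibition (inferred: compounds with an IC50 in retests scored well above the rest). Of about 69,000 compounds tested this way, about 930 (1.4%) reached 50% or more in at least one test.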

Results are percentages, as filed.
The record does not define 0% and 100%; most values in the screen are far below 50% and negative numbers occur (in some assays of this library far below -100).
The compounds are a random part of those screened.
A dash means the value is not listed here; it may have been measured.

| structure | A | B |
|---|---|---|
| `CN(CCO)Cc1cc(Cl)ccc1OCC(O)CN1CCCCCC1` (stereo not shown) | 30.34 | 54.32 |
| `CCCc1nc(C)cc(N2CCC3(CCC(=O)N(CC4CC4)C3)CC2)n1` | 15.24 | -9.896 |
| `Cc1nc(CN2CCO[C@H]3CN(C(=O)c4cscn4)C[C@H]32)cs1` | 15.07 | - |
| `CCc1nnc(CN2CCCN(C(=O)c3ccccn3)CC2)o1` | 11.34 | 2.86 |
| `Fc1cnc(N2CCCC3(CN(Cc4cccs4)CCO3)C2)nc1.O=C(O)C(F)(F)F` (stereo not shown) | - | -12.98 |
| `CCCNC(=O)CN1CCC(NCc2c(C)nn(C)c2OC)CC1` | 11.54 | -15.13 |
| `Cc1ccc(OCCCC(=O)NC(C)c2ccc(S(N)(=O)=O)cc2)cc1` (stereo not shown) | 7.692 | -0.2633 |
| `O=C(O)C(F)(F)F.[H][C@@]12CN(Cc3ccc(OC)cc3)C[C@]1([H])OCCN2C` | - | -25.34 |
| `CCn1cc(NC(=O)NCCc2ccc3c(c2)OCO3)cn1` | 17.49 | -6.579 |
| `[H][C@]12CN(Cc3c[nH]nc3-c3ccccc3)C[C@]1([H])N(CCOC)C(=O)CO2` | - | -12.12 |
| `OC1(CNCCc2csc(-c3cccnc3)n2)CCNC1` (stereo not shown) | 15.22 | -21.64 |
| `COc1cccc(CNc2c(C)cnc3c2c(=O)n(C)c(=O)n3C)c1` | 9.36 | -13.92 |
| `COc1ccc(CNCCc2ccn(-c3ccccc3)n2)cc1O` | 14.84 | 9.622 |
| `CCN(CC)CC(=O)NCCc1csc(N2CCCC2)n1` | 6.829 | 5.387 |
| `Cc1cc(-c2cnc(N3CCCC3)nc2-c2ccc(C)s2)on1` | 7.765 | 9.59 |
| `Cc1nc(CN2C(=O)COC3(CCN(C)CC3)C2C)cs1.O=C(O)C(F)(F)F` (stereo not shown) | - | -6.14 |
| `O=C(O)C(F)(F)F.[H][C@@]12CCCO[C@]1([H])[C@H](OCc1cccnc1)CN2C(=O)N1CCCC1` | - | -19.62 |
| `CN1CCC(c2nnc3ccc(C(=O)N4CCCCC4)cn23)C1.O=C(O)C(F)(F)F` (stereo not shown) | - | 3.153 |
| `CC(NC1CCN(CCc2ccncc2)CC1)c1cnn(C(C)C)c1` (stereo not shown) | 6.805 | -14.66 |
| `CN(C)C(=O)c1cn[nH]c1C1CCCN1Cc1nccn1C` (stereo not shown) | 9.748 | - |
| `COc1ccccc1CNC(Cc1cccs1)c1nc(C)c(C)s1` (stereo not shown) | 12.22 | - |
| `Cn1cc(CN2CCC3(CC2)CCN(C(=O)c2cscn2)C3)cn1` | 9.375 | - |
| `O=S(=O)(C1CC1)N1CCC(Cn2cccn2)CC1` | 7.971 | 23 |
| `O=C(CCc1ccccn1)N1CCSC2(CCCCC2)C1` | 16.67 | 27.82 |
| `CN(CCC(=O)N1CCc2sccc2C1)Cc1cnn(C)c1` | 13.86 | -6.174 |
| `CCn1cc(S(=O)(=O)Nc2ccc3[nH]c(C4CCC4)nc3c2)cn1` | -0.9119 | -15.81 |
| `CS(=O)(=O)N1C[C@H](C(=O)Nc2cnccn2)C[C@H]2OCC[C@H]21` | 3.261 | - |
| `CN1CCN(Cc2ccncc2)C(=O)C12CCN(Cc1ccsc1)CC2` | 9.295 | - |
| `CCSc1ccc(NC(=O)NC(C)c2c(C)noc2C)cn1` (stereo not shown) | 5.319 | 44.5 |
| `Cc1ccnc(N2CCC(C(N)=O)CC2)n1` | 2.184 | -30.44 |
| `c1ccc(CN2CCc3ncnc(C4CCOC4)c3CC2)nc1` (stereo not shown) | 1.629 | - |
| `CC1CN(C)CCN1C(=O)c1ccn(-c2cccc(Cl)c2)n1` (stereo not shown) | 12.55 | -16.17 |
| `Cc1ccc(-c2cccc(N3CCC(NC4CCOCC4)CC3)c2)cc1` | 17.76 | 0.1337 |
| `CNCC(=O)N[C@H]1CN(c2nc(C)c3c(n2)CCCC3)C[C@@H]1C1CC1` | 13.77 | -32.63 |
| `COCCn1c(-c2cccc(OC)c2)cnc1NC(=O)NCCC(C)C` | 20.99 | 67.45 |
| `CC1CCN(C(=O)c2cnc3cc(C(=O)N(C)C)n(C)c3c2)CC1` | 7.5 | -4.84 |
| `Cc1cc(C(=O)N2CCc3nc4sc(C)cc4c(=O)n3CC2)on1` | 12.94 | 8.612 |
| `CN(C(=O)c1cccc(C#N)c1)c1nnc(C2CCOC2)s1` (stereo not shown) | 9.302 | -8.321 |
| `CCCOc1ccc(CNc2cncc(-n3cccn3)n2)cc1` | 18.18 | 63.69 |
| `[H][C@]12CC[C@]([H])(CN(S(=O)(=O)N(C)C)C1)N(Cc1csc(C(C)=O)c1)C2` | - | -20.68 |
| `CCN(CC)C(=O)CCNC(=O)N(C)Cc1ccc(SC)c(OC)c1` | - | 15.07 |
| `CCOC(=O)c1s/c(=N\C(=O)COc2cnc(C)cc2O)[nH]c1C` | 12.46 | -28.84 |

Repeated from the top, 5 entries:

{"structure": "CN(CCO)Cc1cc(Cl)ccc1OCC(O)CN1CCCCCC1", "stereo": "stereo not shown", "A": 30.34, "B": 54.32}
{"structure": "CCCc1nc(C)cc(N2CCC3(CCC(=O)N(CC4CC4)C3)CC2)n1", "A": 15.24, "B": -9.896}
{"structure": "Cc1nc(CN2CCO[C@H]3CN(C(=O)c4cscn4)C[C@H]32)cs1", "A": 15.07}
{"structure": "CCc1nnc(CN2CCCN(C(=O)c3ccccn3)CC2)o1", "A": 11.34, "B": 2.86}
{"structure": "Fc1cnc(N2CCCC3(CN(Cc4cccs4)CCO3)C2)nc1.O=C(O)C(F)(F)F", "stereo": "stereo not shown", "B": -12.98}